At least one compound was matched to its structure with a doubt left.
Test system: abdominal aorta of C57/B16 mice after elastase perfusion
Assay: Elastase-perfusion mouse model of AAA
Type: in vivo
Conditions: doxycycline 100 mg/kg/day, aorta at harvest, H&E and VVG stain
Excerpt: All mice used in the experiment were commercially obtained C57/B16 inbred strain mice. Throughout the experimental course, mice were allowed free access to food and water. Animals were housed in a controlled animal facility, and all mouse care and treatment occurred under approved protocols.
A total of 89 C57/B16 mice were subjected to transient perfusion of the abdominal aorta according to a protocol known in the art. Briefly, after sedation and preparation, the aorta was approached through a midline laparotomy. The infrarenal aorta was dissected and the diameter was measured under physiologic blood pressure. A segment of infrarenal aorta was isolated and a 5 minute perfusion of this segment was performed through an arteriotomy at 100 mmHg with a solution containing type I porcine pancreatic elastase (PPE 0.16 U/mL). All of the experiments were performed with a single PPE preparation derived from the same commercial source and lot.
Following aortic perfusion the arteriotomy was repaired, the laparotomy was closed and the animal was allowed to completely recover before returning to its standard housing.
Following aortic perfusion, animals were placed into one of 5 treatment groups. […]
Two weeks following elastase perfusion, the mice were again anesthetized; the laparotomy incision was reopened and the final aortic diameter was measured in vivo prior to sacrifice. […]

`C[C@H]1c2cccc(O)c2C(=O)C2=C(O)[C@]3(O)C(=O)C(C(N)=O)=C(O)[C@@H](N(C)C)[C@@H]3[C@@H](O)[C@@H]21` [doxycycline, reference compound] was tested, and the “aortic histology: cellular infiltrate” value was “modest cellular infiltrate” and the “aortic histology: medial elastin” value was “preservation of the medial elastin”.

Reference: patent US20120270884A1, “Methods of Treating Aneurysmal Dilatation, Blood Vessel Wall Weakness and Specifically Abdominal Aortic and Thoracic Aneurysm Using Matrix Metalloprotease-2 Inhibitors” (SYMPHONY EVOLUTION, INC., priority 2009, published 2012)
